## Primary screen of a compound library

Sequences of proteins named here, by UniProt entry; tags and fusion partners are left off.
UniProt P9WFT3, whole entry: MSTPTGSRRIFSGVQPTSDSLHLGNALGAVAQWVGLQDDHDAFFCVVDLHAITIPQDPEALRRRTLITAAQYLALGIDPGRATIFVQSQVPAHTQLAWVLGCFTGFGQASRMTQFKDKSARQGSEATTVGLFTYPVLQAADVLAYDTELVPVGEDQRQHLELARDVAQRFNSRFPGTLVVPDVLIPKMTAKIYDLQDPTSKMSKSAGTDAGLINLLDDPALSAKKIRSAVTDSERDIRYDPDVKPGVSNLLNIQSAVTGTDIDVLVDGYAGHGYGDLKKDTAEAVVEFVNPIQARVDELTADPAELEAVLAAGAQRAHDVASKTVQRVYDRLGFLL

Data taken from ChEMBL document CHEMBL3988442, “University of Dundee, Small-Polar-MMV Screening Library” (2021).

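Tryptophan-tRNA ligase, Mycobacterium tuberculosis (UniProt P9WFT3). Enzyme assay of tryptophanyl-tRNA synthetase; the read-out is not stated. Concentration: 10 µM. Direction is not recorded; retested compounds ran higher, which suggests that high means inhibition. Size under these conditions: about 65,000 compounds, about 64 of them at 50% or above in at least one test.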

Values are the deposited “Percent Effect”, in %. How 0% and 100% were set is not recorded. Most values in the screen are low, and negative values occur. The compounds are a random part of those screened.

compound,Percent Effect
COc1c(CNC(c2ccc(F)cc2)C(C)(C)C)c(C)nn1C (stereo not given),-3.616
Cc1ccc(S(N)(=O)=O)cc1C(=O)N1CCc2c(ncnc2N(C)C)C1,0.7874
Cc1noc(C)c1CN1CCCCC1CCc1ccc(O)cc1 (stereo not given),-3.434
CCn1c(N)nc2cc(C(=O)NCCc3ccccc3F)cnc21,-0.2719
Cc1ccc(-c2ncc(CN3CCN(C(=O)N(C)C)CC3)s2)o1,0.09099
O=C(c1cc(-n2cccn2)ccc1Cl)N1CCCC(N2CCCC2)C1 (stereo not given),-2.467
O=C(CCC(F)(F)F)NCC1CCCS1 (stereo not given),2.434
COc1cccc(CNC(C)c2ccc(-n3ccnc3)cc2)c1O (stereo not given),4.632
O=C1CC(c2ccncc2)C2(CCN(CCO)CC2)N1 (stereo not given),-2.397
O=C(CCc1ccc(Br)cc1)NCc1nnc[nH]1,3.592
CCc1noc(CN2CCN(C(=O)c3ccccn3)CC2)n1,1.058
OC1CCCN(CCNc2ncc(Cl)cc2F)C1 (stereo not given),16.46
CC(=O)N[C@@H]1CN(S(=O)(=O)c2ccc(Cl)cc2)C[C@H]1O,-1.327
CCc1ccc(NC(=O)N2C[C@H]3C[C@H](C(=O)NC)[C@@H](C2)O3)cc1,-5.402
CC(C)C(=O)NCCc1nc(-c2ccncc2)n[nH]1,-0.3264
CN(C)C[C@H]1C[C@@H]2CN(Cc3ccoc3)C[C@@H]2O1,-4.07
COCCN1CCN(CCS(=O)(=O)C(F)(F)F)CC1C (stereo not given),4.179
Cn1cnnc1SCC(=O)NC1CC(=O)N(CCc2cccc(Cl)c2)C1 (stereo not given),1.223
CCn1ccnc1CN1CCN(CCCS(C)(=O)=O)CC1C (stereo not given),1.227
CNC(=O)C1(N2CCC[C@H]2C(=O)NC2CCCCC2)CCOCC1,2.334
CC(CC(=O)Nc1ncn(CC(=O)NCc2ccccc2)n1)C1CC1 (stereo not given),3.762
Cc1ccc(OCC(=O)NS(=O)(=O)Cc2ccccc2)cc1,-1.008
COc1ccc(-c2noc(-c3ccc(N4CCC[C@H]4CO)nc3)n2)cc1,-9.478
Cn1c(NC(=O)CNC(=O)C2CCCC2)nc2cc(Cl)ccc21,-1.257
Cc1nn(C)c(N(C)C)c1CNC(C)COc1ccc(F)cc1 (stereo not given),-8.847
Fc1cccc(N2CCOC3(CCCN(c4cnccn4)C3)C2)c1 (stereo not given),-5.23
CC(C)CN1CC2(CCN(C(=O)C3CSC(C)(C)C(=O)N3)CC2)CC1=O (stereo not given),2.725
Cc1cnc2c(C(=O)N(C)Cc3cc(C4CC4)[nH]n3)cnn2c1,-0.7199
CC(=O)N1CC2(CCN(C(=O)c3cccc4[nH]ccc34)CC2)C1,-6
COc1cccc(CNC(=O)CN2CCCCC2Cn2cccn2)c1 (stereo not given),1.798
CCc1nc(CN(C)C2CCN(CCc3ccccn3)C2)no1 (stereo not given),-0.5912
O=C(CC1CC1)N1CCO[C@H]2[C@H](OCCCn3cccn3)CC[C@@H]21,-5.053
c1ccc(C2CCCN2Cc2nnnn2C2CC2)cc1 (stereo not given),-3.981
COC1CCCOC12CCN(C(=O)c1ccc3[nH]nnc3c1)CC2 (stereo not given),-4.158
O=C(c1cccnc1SC/C=C/c1ccccc1)N1CC[C@H](O)C1,2.832
Cc1cnn(C2CCCN(C(=O)c3ccnc(N(C)C)c3)C2)c1 (stereo not given),-3.801
CC(C)N(Cc1nc(-c2cccs2)no1)CC1CCC(=O)N1 (stereo not given),-0.9662
Cc1nccc([C@@H]2C[C@@H]3CCN(Cc4c(C)noc4C)C[C@H]3O2)n1,0.07639
CC(C)c1nnc(NC(=O)CCc2cc(F)ccc2F)[nH]1,-1.354
COc1nn(C)c2c1CCCN(C(=O)c1ccc3c(c1)OCO3)C2,0.7712
Cc1nccn1C1CCCN(C(=O)c2ccc3c(c2)nc(C)n3C)C1 (stereo not given),-6.53
CSc1ccc(C(C(=O)O)N2CCCC2)cc1 (stereo not given),-3.003
COc1c(Cl)cc(C(=O)NCc2n[nH]c(C)n2)cc1Cl,1.911
O=C(c1ccsc1)N1CCN2C[C@H](OCc3ccccn3)C[C@H]2C1,2.502
O=C(CC1CSc2nccc(=O)n21)NCc1ccco1 (stereo not given),0.3943
CN1CCN(Cc2cnc3n2CCN(Cc2cccnc2)CC3)CC1,-1.906
CCc1cc(C(=O)N2CCCn3nc(CCC(=O)O)cc3C2)cs1,-0.2174
CC(C)CN1CCS(=O)(=O)[C@@H]2CCN(S(=O)(=O)C3CC3)CC[C@@H]21,0.3524
CC(C)OCCC1CCCCN1S(C)(=O)=O (stereo not given),4.369
OCC(O)CSCc1cn(-c2ccc(Cl)cc2)nn1 (stereo not given),-4.479
CC(C)n1cnnc1CN(C)Cc1ccoc1,2.144
CCn1ncc2c1C(COC)CN(Cc1nccs1)C2 (stereo not given),5.535
CC(C)n1cnnc1C1CCCN(S(=O)(=O)CCCF)C1 (stereo not given),1.671
Cc1noc(C)c1CN1CCCC(c2noc(C3CC3)n2)C1 (stereo not given),-4.661
CC(C)(C)c1cc(C[C@H]2CNCC[C@H]2CC(=O)NC2CCCCC2)no1,2.881
CC(C)CC(=O)NC[C@H]1CC[C@H](C(c2ccccn2)N(C)C)CC1 (stereo not given in full),-6.078
Cc1cc(NCC(=O)N(C)C(C)c2cccs2)c(C(N)=O)cc1F (stereo not given),0.3276
CS(=O)(=O)NCC1CCCN(C(=O)CCCc2ccccc2)C1 (stereo not given),-0.728
CC(=O)N1CCC(NC(=O)c2cc(S(N)(=O)=O)ccc2C)CC1,4.405
CC[C@H]1CN(C(=O)C2CC2)CC[C@H]1CC(=O)NCCN1CCOCC1,-2.485
COc1ccc(CN2CCc3ncnc(C4CC4)c3CC2)cc1,6.655
Cc1cc(CN2CCCC(C)(CO)C2)ccc1F (stereo not given),-4.694
CC(C)(C)c1nc(CNC2CCN(S(C)(=O)=O)CC2)cs1,-0.9874
CC(=O)N[C@@H]1CN(Cc2nccn2C)C[C@H]1c1ccc(C)cc1,3.857
O=C(Nc1ccc(N2CCCC2)nc1)N1CCc2sccc2C1,0.9381
N#Cc1cccc(OC23CCCN(CC2)C3)c1 (stereo not given),26.66
C(=C/c1ccccc1)\CNCC1CCc2nncn2C1 (stereo not given),0.2427
CC(C)CN1CCN(C)C2(CCN(c3nccs3)CC2)C1=O,9.601
Cc1nc(C)n(C2CCCN(C(=O)CCOCC(C)C)C2)n1 (stereo not given),10.81
COCc1ncn2c1CN(C(=O)Nc1cccc(OC)c1)CC2,13.74
Cc1ccc(NC2CCCN(C3Cc4ccccc4C3)C2)nn1 (stereo not given),-0.5789
CC(=O)c1ccc(N2CCCC(CO)(Cc3ccccc3F)C2)nc1 (stereo not given),-4.42
CCCc1n[nH]c(C2CN(CCCS(C)(=O)=O)CCO2)n1 (stereo not given),-5.556
Cc1ccccc1C1(CNC(=O)c2cccc(S(C)(=O)=O)c2)CC1,5.69
CCC(C)NC(=O)c1nnn(-c2cccc3c2CCN(C)C3)c1C (stereo not given),0.5069
O=C(c1ccco1)N1CC[C@@H]2O[C@@H](COCCN3CCCC3)CC[C@@H]21,-3.743
CS(=O)(=O)CCN1C[C@H](NC(=O)c2cnc(O)cn2)[C@@H](C2CC2)C1,-0.7158
Clc1ccccc1CN1CCc2nc(C3CCCCN3)ncc2C1 (stereo not given),-2.467
COc1ccc(-c2nnc(C(C)N3CCOC(C)(C)C3)o2)cc1 (stereo not given),-3.792
CC(CNC1CCN(c2ccccn2)CC1)Oc1ccc(F)cc1 (stereo not given),4.417
COc1cc2c(cc1CN1CCn3c(CO)nnc3C1)CCC2,-2.261
CN(Cc1ccccc1)CC(C)(C)NC(=O)c1cnns1,4.124
N#Cc1csc(CN(CC(=O)N2CCCC2)CC2CCCO2)c1 (stereo not given),-6.097
Cc1ccc2c(c1)c(CNC(C)Cn1nc(C)cc1C)nn2C (stereo not given),4.856

Once more, the final 5:

{"compound": "CC(CNC1CCN(c2ccccn2)CC1)Oc1ccc(F)cc1", "stereo": "stereo not given", "Percent Effect": 4.417}
{"compound": "COc1cc2c(cc1CN1CCn3c(CO)nnc3C1)CCC2", "Percent Effect": -2.261}
{"compound": "CN(Cc1ccccc1)CC(C)(C)NC(=O)c1cnns1", "Percent Effect": 4.124}
{"compound": "N#Cc1csc(CN(CC(=O)N2CCCC2)CC2CCCO2)c1", "stereo": "stereo not given", "Percent Effect": -6.097}
{"compound": "Cc1ccc2c(c1)c(CNC(C)Cn1nc(C)cc1C)nn2C", "stereo": "stereo not given", "Percent Effect": 4.856}